Measurements reported in PubChem BioAssay AID1259300 (Sanger Institute, 2017)
Assay: 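Which knock-downs harm HCT15 alone or synergise with the drugs BYL719, cetuximab or trametinib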 (primary screen). System: HCT15 colorectal cancer cells. Reagents: siRNA pool against human genes. Challenge: anchor drug or DMSO vehicle added 24 h after seeding: BYL719 1 µM, cetuximab 5 µg/ml, trametinib 10 nM; drug doses chosen to barely affect viability alone. Read-out: 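Cell viability after knock-down, as fraction of non-targeting pool wells averaged over replicates, plus robust z-score for knock-down alone; synergy score per drug (BYL719 1 µM, cetuximab 5 µg/ml, trametinib 10 nM)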. Reading the numbers: viability z-score, siRNA alone: higher = more viable cells after knock-down. Call rule: 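a knock-down without drug that drives the robust viability z-score under -3 is active, i.e. essential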. Calls: active = essential: knock-down alone lowers viability (z below -3); inactive = no strong viability loss with knock-down alone.
The whole screen tested 794 reagents; below is a part drawn at random. In the full data, 18 (2.3%) were called active. 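Calls rest on knock-down alone, not drug synergy; depositor treated synergy scores above 0.15 as synergistic; drug doses alone had little viability effect.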 Unmarked entries are inactive. Further read-outs or replicates are left out here. Not stated in the record: the amount of reagent, the time to read-out.

For VRK3 (VRK serine/threonine kinase 3), what was measured?
viability z-score, siRNA alone: 0.625

For PRKCSH (PRKCSH beta subunit of glucosidase II), what was measured?
viability z-score, siRNA alone: 0.182

With MAST1 (microtubule associated serine/threonine kinase 1), what does the deposit list?
viability z-score, siRNA alone: 0.625

How did the screen score PRPS2 (phosphoribosyl pyrophosphate synthetase 2)?
viability z-score, siRNA alone: 0.625

What did the screen give for MET (MET proto-oncogene, receptor tyrosine kinase)?
viability z-score, siRNA alone: 0.625

How did the screen score STK31 (serine/threonine kinase 31)?
viability z-score, siRNA alone: 0.157

With ATRX (ATRX chromatin remodeler), how do the results read?
viability z-score, siRNA alone: 0.625

How did the screen score FGFRL1 (fibroblast growth factor receptor like 1)?
viability z-score, siRNA alone: 0.542

What did the screen give for BCR (BCR activator of RhoGEF and GTPase)?
viability z-score, siRNA alone: 0.625

With FASTK (Fas activated serine/threonine kinase), what does the deposit list?
viability z-score, siRNA alone: -0.834

What did the screen give for CAMK2D (calcium/calmodulin dependent protein kinase II delta)?
viability z-score, siRNA alone: 0.625

Which result is listed for MAP3K2 (mitogen-activated protein kinase kinase kinase 2)?
viability z-score, siRNA alone: -0.724

With TEK (TEK receptor tyrosine kinase), how do the results read?
viability z-score, siRNA alone: 0.175

With PXK (PX domain containing serine/threonine kinase like), what was measured?
viability z-score, siRNA alone: 0.625

What did the screen give for TCF7L2 (transcription factor 7 like 2)?
viability z-score, siRNA alone: -0.195

For LYN (LYN proto-oncogene, Src family tyrosine kinase), how do the results read?
viability z-score, siRNA alone: 0.625

With GUCY2C (guanylate cyclase 2C), what does the deposit list?
viability z-score, siRNA alone: 0.625

What is on record for GTF2H1 (general transcription factor IIH subunit 1)?
viability z-score, siRNA alone: -0.108

Which result is listed for CDKN2C (cyclin dependent kinase inhibitor 2C)?
viability z-score, siRNA alone: 0.625

Entries listed so far whose target name begins with M or m:
MAST1 (microtubule associated serine/threonine kinase 1) — viability z-score, siRNA alone = 0.625
MET (MET proto-oncogene, receptor tyrosine kinase) — viability z-score, siRNA alone = 0.625
MAP3K2 (mitogen-activated protein kinase kinase kinase 2) — viability z-score, siRNA alone = -0.724
